Test results as given in article PMC9233711, “Wiskott-Aldrich syndrome protein forms nuclear condensates and regulates alternative splicing” (Nature Communications, 2022).
Results are given in words; binding and its absence hold for the method and conditions named. In cells and extracts the contact can be indirect. Some results given as binding are weak or reduced against the parent protein; the word gives no strength.

Protein sequences, listed by entry. Tags and fused reporters are not part of them.
UniProt P42768: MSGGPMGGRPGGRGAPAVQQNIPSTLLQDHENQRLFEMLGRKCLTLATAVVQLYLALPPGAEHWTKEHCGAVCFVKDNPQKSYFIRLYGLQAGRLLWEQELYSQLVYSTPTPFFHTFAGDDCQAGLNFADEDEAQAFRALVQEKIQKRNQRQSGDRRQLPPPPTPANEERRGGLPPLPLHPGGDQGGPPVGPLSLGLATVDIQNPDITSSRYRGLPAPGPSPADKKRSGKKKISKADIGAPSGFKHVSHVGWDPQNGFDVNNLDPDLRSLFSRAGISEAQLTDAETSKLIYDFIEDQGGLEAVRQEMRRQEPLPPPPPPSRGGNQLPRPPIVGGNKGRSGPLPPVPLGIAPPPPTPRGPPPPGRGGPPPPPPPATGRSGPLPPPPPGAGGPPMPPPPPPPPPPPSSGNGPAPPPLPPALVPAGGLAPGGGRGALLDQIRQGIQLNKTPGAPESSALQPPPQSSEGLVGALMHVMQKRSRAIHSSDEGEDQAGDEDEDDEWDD
UniProt Q15393: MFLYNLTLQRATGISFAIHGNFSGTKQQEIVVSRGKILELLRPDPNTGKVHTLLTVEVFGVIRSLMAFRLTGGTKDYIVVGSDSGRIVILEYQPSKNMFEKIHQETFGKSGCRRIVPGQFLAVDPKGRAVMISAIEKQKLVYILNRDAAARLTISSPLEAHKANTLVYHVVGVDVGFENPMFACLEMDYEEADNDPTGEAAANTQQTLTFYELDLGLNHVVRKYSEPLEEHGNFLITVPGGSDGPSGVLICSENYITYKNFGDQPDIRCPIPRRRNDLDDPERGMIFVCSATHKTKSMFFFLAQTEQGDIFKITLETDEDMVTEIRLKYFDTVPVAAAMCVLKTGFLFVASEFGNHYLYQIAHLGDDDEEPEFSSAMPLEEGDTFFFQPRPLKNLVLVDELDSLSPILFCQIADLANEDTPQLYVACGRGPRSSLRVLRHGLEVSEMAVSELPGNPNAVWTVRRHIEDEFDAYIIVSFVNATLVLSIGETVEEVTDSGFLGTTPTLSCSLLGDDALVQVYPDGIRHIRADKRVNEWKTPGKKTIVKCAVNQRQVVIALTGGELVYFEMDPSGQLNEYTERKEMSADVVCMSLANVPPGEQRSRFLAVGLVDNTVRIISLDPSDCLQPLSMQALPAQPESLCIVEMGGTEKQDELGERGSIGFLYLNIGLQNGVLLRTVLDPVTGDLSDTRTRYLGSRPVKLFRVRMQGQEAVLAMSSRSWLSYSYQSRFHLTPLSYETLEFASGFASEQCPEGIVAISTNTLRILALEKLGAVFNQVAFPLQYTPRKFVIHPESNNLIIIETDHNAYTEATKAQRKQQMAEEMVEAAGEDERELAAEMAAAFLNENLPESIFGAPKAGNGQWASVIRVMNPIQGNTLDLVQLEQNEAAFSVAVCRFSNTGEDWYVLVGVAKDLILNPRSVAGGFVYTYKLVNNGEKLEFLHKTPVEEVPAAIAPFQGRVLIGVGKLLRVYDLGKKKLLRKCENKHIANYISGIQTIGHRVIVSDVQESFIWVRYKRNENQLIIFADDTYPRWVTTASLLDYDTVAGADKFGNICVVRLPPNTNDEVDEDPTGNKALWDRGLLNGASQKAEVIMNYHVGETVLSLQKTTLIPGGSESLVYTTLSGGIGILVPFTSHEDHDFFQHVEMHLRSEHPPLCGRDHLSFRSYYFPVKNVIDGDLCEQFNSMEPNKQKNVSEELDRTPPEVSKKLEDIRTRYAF

Experiments:
[1] = target: Wiskott-Aldrich syndrome protein (WASP), endogenous (human (endogenous in B lymphoblastoid cell lines)) (UniProt P42768); assay: proximity ligation; Duolink In Situ Red Mouse/Rabbit kit on fixed, permeabilised WT B cells; mouse anti-WASP (D-1) with rabbit antibody to the partner; rabbit isotype as negative control
[2] = target: Wiskott-Aldrich syndrome protein (WASP), endogenous (human (endogenous in B lymphoblastoid cell lines)) (UniProt P42768); assay: co-IP; B-cell lysates (50 mM Tris-HCl pH 7.5, 150 mM NaCl, 0.5% Triton X-100), protein A-Sepharose conjugated with antibodies, 30 min at 4 °C, immunoblot

binding [1] | binding [2] | Molecule
binds | binds | SF3B3 (also known as SAP130), endogenous (from UniProt Q15393 1-1217)
binds | binds | SRSF2, endogenous (protein, UniProt Q01130 1-221) MSYGRPPPDVEGMTSLKVDNLTYRTSPDTLRRVFEKYGRVGDVYIPRDRYTKESRGFAFVRFHDKRDAEDAMDAMDGAVLDGRELRVQMARYGRPPDSHHSRRGPPPRRYGGGGYGRRSRSPRRRRRSRSRSRSRSRSRSRSRYSRSKSRSRTRSRSRSTSKSRSARRSKSKSSSVSRSRSRSRSRSRSRSPPPVSKRESKSRSRSKSPPKSPEEEGAVSS
